The target in data set [1] is streptavidin (UniProt P22629). Kind of data set: binding assay. The settings on record: control without biotin; lower absorbance change than AC-X1; purified recombinant protein; protein details: immobilized on NUNC 96-well plates (Thermo Fisher); folded or branched DNA.
Data set [2] has as its target trypsin (Bos taurus) (UniProt P00760). Kind of data set: EMSA. The settings on record: with thrombin 1:1:1, 500 mM NaCl, purified native protein, protein details: Sigma Aldrich, from bovine pancreas, folded or branched DNA. In general terms: A gel shift assay detects complexes by their altered migration in electrophoresis.
Data set [3] shares this target. Kind of data set: FP. The settings on record: no arms; low salt: 5 mM KCl, 25 mM Hepes pH 7.4; +/-0.7e-5; non-specific electrostatic; purified native protein; protein details: Sigma Aldrich, from bovine pancreas; label: fluorescein on 5'-terminal dT; folded or branched DNA; variant of AC 1 (ODN 1, Formula 3).

Amino acid sequences for entries named in this document (tags omitted). A change or cut given only in a name is not applied to a line headed by its entry.
UniProt P22629: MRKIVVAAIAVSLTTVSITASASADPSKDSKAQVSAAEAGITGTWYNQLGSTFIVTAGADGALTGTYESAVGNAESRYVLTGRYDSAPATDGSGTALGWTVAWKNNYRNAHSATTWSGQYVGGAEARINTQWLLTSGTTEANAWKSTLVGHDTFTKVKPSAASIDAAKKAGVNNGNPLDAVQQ
UniProt P00760: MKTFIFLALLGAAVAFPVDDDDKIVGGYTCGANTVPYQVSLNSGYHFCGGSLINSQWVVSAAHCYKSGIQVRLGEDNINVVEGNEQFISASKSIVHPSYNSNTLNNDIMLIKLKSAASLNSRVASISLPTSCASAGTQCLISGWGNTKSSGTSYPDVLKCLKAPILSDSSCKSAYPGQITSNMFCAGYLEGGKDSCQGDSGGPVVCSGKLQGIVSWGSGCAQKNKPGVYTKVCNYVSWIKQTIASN

For some of these results: No signal at the amounts used counts as a negative. For some of these results: For at least one entry, the source does not settle the construct or the ends of the probe.

Take “TGGGTAGGGCGGGTTGGGT [HBA (hemin-binding aptamer)]”: the binding result in data set [1] is reported as “no binding”. Regarding TGGTTGGTGTGGTTGGT [TBA], the binding result in data set [2] (no arms, no spacers, no ternary complex, variant of m-TBA) is “no binding”. As to TGGTTGGTGTGGTTGGT [m-TBA], the binding result in data set [2] (5'-benzamidine arm via C10 spacer, 3'-iodophenylthiourea arm via C6 spacer, ternary complex confirmed by SDS-PAGE, variant of AC 1 (ODN 1, Formula 3)) is recorded as “binds”. In the case of TTGGTTGGTGTGGTTGGT [ODN 4 (Formula 6)], the Kd in data set [3] worked out at 31 µM.

As a reminder, the Kd is the concentration at which binding is half-saturated.

Source of the values: US20110190483.
